This note sets out measurements from PubChem BioAssay AID1458 (National Center for Advancing Translational Sciences (NCATS), 2008).

The whole screen tested about 210,000 compounds, of which about 5,900 (2.8%) were called active. About 5% were inconclusive and are not listed. Calls come from the whole dose curve; as a rule, active = well fitted activation curve with a large enough effect; inconclusive = small, poorly fitted or top-dose-only effect; inactive = no such curve, though single readings can be large or run the other way. This is a selection; strong and weak results do not stand in their true shares. The source gives no active or inactive call for entries shown without one.
Potency is the fitted concentration of half-maximal effect.

The experiment in a line: qHTS Assay for Enhancers of SMN2 Splice Variant Expression. For activity change, positive = activation: % of control where 0% means no effect. Note: nearly all actives have a fitted effect of over 55% in size. To be noted: HEK293 SMN2-luciferase splicing reporter, luminescence, 30-36 h; activity change, positive = activation: at 46.1 µM (top of the series) unless noted. The procedure, abridged:
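HEK293 cells carry an SMN2 […]–luciferase reporter in which exon 7 inclusion puts luciferase in frame. Cells were plated 10-12 h before compound addition, then incubated 30-36 h at 37C. ONE-Glo luminescence was read; sodium butyrate at 4.5 mM final served as control.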
`O=C(/C=C\Nc1ccc(Br)cc1)c1cccnc1`: the activity change, positive = activation is 243%.
Consider `CCCNC(=O)CN(c1ccc(F)c(Cl)c1)S(C)(=O)=O`, for which the activity change, positive = activation stood at 31.2%.
Turning to `Cc1cc(C)cc(Oc2ccc(N)cc2)c1`, the Potency was active: 12.6 µM.
Regarding `N#CCSCC(=O)Nc1ccc(Br)cc1`, the activity change, positive = activation turned out to be 33.6%.
As to `CCOc1ccccc1Nc1nnc(SCC(=O)Nc2cccc(S(=O)(=O)NC3=NCCCCC3)c2)s1`, the “activity change, positive = activation” value is inactive: -42.6%.
In the case of `O=C(CCCOc1ccc(Cl)cc1Cl)N/N=C/c1ccccc1O`, the “activity change, positive = activation” value is inactive: -82%.
As to `O=C(Nc1cc(N2CCOCC2)ncn1)NC1(C(F)(F)F)Oc2ccc(Cl)cc2O1` (stereo not given), the Potency was active: 20 µM.
Consider `COc1ccc(/C=C/C(=O)c2ccccc2O)cc1`, for which the activity change, positive = activation came out at 40.9%.
The same measure, in the same setting: the value for `CCN(CCCNC(=O)C1CCN(S(=O)(=O)CC)CC1)c1ccccc1` was 39.9%; that for `CCOC(=S)SCc1cn2ccc(C)cc2n1` was inactive: -31.4%; that for `CN(Cc1nc2ccccc2n1C)S(=O)(=O)c1ccc(Cl)cc1` was 44.6%.
`CCC(=O)Nc1cccc(C(=O)/C=C/c2cccs2)c1`: the “activity change, positive = activation” value is inactive: -63.5%.
For `CC(=O)Nc1ccc(/C=N/NC(=O)c2cccs2)cc1`, the Potency was active: 17.8 µM.
As for `CCOc1ccccc1NC(=O)CSc1nnc(-c2ccccc2Cl)n1Cc1ccco1`, the activity change, positive = activation turned out to be 37.7%.
On the same count and under the same terms, for `COC(=O)c1cc(CSc2nnc(NC3CCCCC3)s2)oc1C` the value was -56.5%.
Same read-out and setting: for `O=C(C1CCCCC1)N(CCN1CCN(c2ccccc2CO)CC1)c1ccccn1` the value was inactive: -31.9%.
In the case of `Cc1cc(/C=N\NC(=O)COc2cccc3cccnc23)c(C)n1-c1ccccc1`, the activity change, positive = activation was -21.8%.
With `COc1ccc(NC(=O)c2sccc2C)cn1`, the activity change, positive = activation is 123%.
In the case of `CCOC(=O)N1CCN(C(=O)CCCOc2ccccc2)CC1`, the Potency was active: 12.6 µM.
In the case of `O=C(Nc1cccc(Cl)c1Cl)c1ccc2c(c1)N(Cc1cccc(Cl)c1)C(=O)c1ccccc1S2(=O)=O`, the activity change, positive = activation turned out to be 40.9%.
For the compound `Cn1cccc1C(=O)OCc1csc(-c2ccccc2)n1`, the Potency was active: 11.2 µM.
On to `O=C(Nc1ccc(N2CCCCC2)cc1)c1ccccc1`, for which the Potency was active: 1.41 µM.
Consider `COc1ccc2c(CC(=O)Nc3ccccc3OC)coc2c1`, for which the activity change, positive = activation turned out to be 48.1%.
The same measure, in the same setting: the value for `CCOC(=O)c1c(O)c2c([nH]c1=O)CCCC2` was -4.44%; that for `CC1(C)Cc2ccccc2C2=C(C(=O)N3CCCCCC3)C(=O)C(=O)N21` was -44.9%.
On to `C/C(=N\Nc1ccccn1)c1ccc2c(c1)OCO2`, for which the activity change, positive = activation worked out at 131%.
As for `CCCCN(C)C(=S)Nc1ccc2nc(N3CCN(CC)CC3)cc(C)c2c1`, the activity change, positive = activation is 30.9%.
Consider `Cc1ccc2cc(C#N)c(NCCCNC(=O)C3CCCO3)nc2c1` (stereo not given), for which the activity change, positive = activation turned out to be 41.6%.
The same measure, in the same setting: for `Cc1ccc(Cn2c(C(C)NC(=O)c3ccccc3)nc3ccccc32)cc1` (stereo not given) the value was 41.6%.
With `Clc1ccc(-c2cnc(Oc3ccccc3)nc2)cc1`, the Potency was active: 14.1 µM.
As for `CC(C)OC(=O)c1ccc(N2C(=O)C3CC=CCC3C2=O)cc1` (stereo not given), the activity change, positive = activation was determined as 43.1%.
Turning to `O=C(c1ccco1)N1CCC2(CC1)CN(c1cccc(-c3ccccc3)c1)C2`, the “activity change, positive = activation” value was inactive: -46.6%.
Still for that read-out and setting: the value for `COC(=O)c1cc(NC(=O)N2c3ccccc3Sc3ccccc32)cc(C(=O)OC)c1` was inactive: -35.1%.
Same read-out and setting: the value for `COc1cc(C(=O)Nc2nc(-c3ccc(F)cc3)cs2)ccc1OCC(=O)N1CCOCC1` was -58.4%.
Consider `Cc1cc(C)n(-c2nnc(SCC(=O)NC3CCCC3)c3ccccc23)n1`, for which the “activity change, positive = activation” value was inactive: -39.5%.
`CCOC(=O)c1c(-c2ccc(C)cc2)csc1NC(=O)c1cc(=O)c2cc(C)cc(C)c2o1`: the activity change, positive = activation is 45.7%.
On the same count and under the same terms, for `O=c1c2c3c(sc2ncn1/N=C/c1ccc([N+](=O)[O-])o1)CCCC3` the value was -84.1%; for `N/C(=N\OC(=O)/C=C/c1ccccc1)c1ccccc1`, 51.1%.
With `O=C(Nc1nc2c(s1)C(=O)CCC2)c1ccccc1`, the Potency is active: 1.58 µM.
Consider `COc1cnc(-c2ccccn2)nc1Oc1c(C)cccc1C`, for which the activity change, positive = activation was -97.7%.
Take `COc1ccc(CNc2n[nH]c(NCc3ccc(OC)c(OC)c3)n2)cc1OC`: the activity change, positive = activation is 36.2%.
On to `CCn1c(C(=O)NCc2ccccc2Br)cc2oc3ccccc3c21`, for which the Potency was active: 4.47 µM.
In the case of `COc1ccc(C(=O)C2CCN(C(=O)c3ccc(C)cc3)CC2)cc1`, the activity change, positive = activation is -65.2%.
As for `Cc1ccccc1NC(=O)c1ccc(F)c(S(=O)(=O)N2CCCCC2)c1`, the activity change, positive = activation is -56.2%.
`Cc1nc(-c2ccc(C(=O)N3CCCC3)cc2)cs1`: the activity change, positive = activation was 47.1%.
On the same count and under the same terms, for `CC1(c2ccc3noc(-c4ccccc4)c3c2)OCCO1` the value was -71.7%; for `CC1(C)C2CCC13CS(=O)(=O)N[C@@H]3C2` (stereo not given in full), 54.7%; for `O=C(N1CCCCC1)N1CCN(C(=O)N2CCCCC2)CC1`, -26.8%.
On to `Nc1cc2nn(-c3ccccc3)nc2cc1Cl`, for which the Potency was active: 3.16 µM.
`O=C(CCCOc1ccccc1)Nc1ccc2c(c1)OCCO2`: the activity change, positive = activation was determined as 32.5%.
Take `CC1(C)CC(=O)C=C(Nc2ccc(S(N)(=O)=O)cc2)C1`: the activity change, positive = activation was found to be 37.1%.
For `FC(F)(F)c1cnc(-c2cnc(-c3cccnc3)nc2)c(Cl)c1`, the Potency is active: 12.6 µM.
Turning to `CC(=O)Nc1ccc(/C(C)=N/NC(=O)c2ccc(CN3CCOCC3)cc2)cc1`, the “activity change, positive = activation” value was inactive: -42.6%.
Turning to `Cc1nn(-c2ccccc2)c(/N=C/c2ccccc2O)c1-c1ccccc1`, the Potency was active: 11.2 µM.
On to `Cc1cc(=O)oc2c(C(=O)/C=C/c3ccccc3)c(O)ccc12`, for which the activity change, positive = activation amounted to 35.3%.
